Test results reported in US20230065816A1, “METHODS FOR PREVENTING AND REVERSING OPIOID ANALGESIC TOLERANCE IN SUBJECTS WITH CHRONIC PAIN” (The Reasearch Foundation for Suny, priority 2020, published 2023).
Some of these results come from one statement about several compounds together.

Test system: rats with spinal nerve ligation (SpNL)
Test: von Frey mechanical allodynia test, tolerance from chronic systemic morphine (s.c. morphine pellets)
Details: after acute reversal of morphine antiallodynic tolerance by i.t. CSD and/or PP2

Molecule	time until tolerance was once again observed after acute reversal
CC(C)(C)n1nc(-c2ccc(Cl)cc2)c2c(N)ncnc21 [PP2, 3-(4-chlorophenyl) 1-(1,1-dimethylethyl)-1H-pyrazolo[3,4-d]pyrimidin-4-amine]	24 to 72 h
H-RQIKIWFQNRRMKWKKDGIWKASFTTFTVTKYWFYR-OH [CSD]	24 to 72 h
